{"source": "patent US20050261283A1", "about": "“Methods and compositions for the treatment of graft failure” (priority 2002, published 2005)", "tested_on": "human aortic vascular smooth muscle cell (HASOM cells)", "assay": "PDGF-BB induced migration of human aortic vascular smooth muscle cells, Boyden chamber", "format": "cell-based", "conditions": "in vitro VSMC migration, read-out: IC50 for blocking VSMC migration", "method": "The cells were then cultured in the presence of these agents for forty-eight hours prior to the migration assay. […] Each well contained an insert with a polycarbonate filter having 8 μm pores. In preparation for the migration assays, the membranes were coated with 0.1% gelatin for 8 hours, aspirated, and allowed to dry for 2 hours.\nThe M-199 media containing 0.5% BSA and 20 ng/ml human PDGF-B (hPDGF-BB) was placed in the bottom Boyden chamber. Cells were incubated at 5% CO2 at 37° C. for twelve hours and the cells lying on the upper surface of the membrane were scraped off. The insert membranes were removed and the cells on the lower surface of each membrane were stained with hematoxylin. Cell migration was then quantified by counting the cells in five random high-power fields on the lower surface of the membrane. All assays were run in triplicate.", "note": "Structures can show the parent of a compound that is named as a salt.", "data": [{"smiles": "Cc1ccc(NC(=O)c2ccc(CN3CCN(C)CC3)cc2)cc1Nc1nccc(-c2cccnc2)n1", "note": "[Gleevec, imatinib mesylate]", "values": [{"measurement": "IC50", "value": "0.25 to 0.5", "unit": "µg/mL"}]}]}
